PubChem BioAssay AID540256 (National Center for Advancing Translational Sciences (NCATS), 2011)
Hit rate of the full screen: of about 300,000 compounds, about 3,700 (1.2%) were called active. The shares of active, inactive and inconclusive entries below differ from those in the screen. Calls come from the whole dose curve; tested in HEK293 cells. Potencies beside an inconclusive call are fits to weak or partial responses and may not hold up.

Assay: qHTS for Inhibitors of binding or entry into cells for Lassa Virus; note: nearly all actives have a fitted effect of over 50% in size
Conditions: Lassa virus pseudotype entry inhibition, cell reporter; series mostly up to 37.9 µM
Potency is the fitted concentration of half-maximal effect.

| Compound | Potency |
| --- | --- |
| CCOC(=O)NC(=S)Nc1ccc(C(C)(C)C)cc1Br | inactive |
| Cc1cc(N/C=C/C(=O)c2ccc(Br)cc2)no1 | inactive |
| COc1cccc(-c2nnc(NC(=O)c3ccc(S(=O)(=O)N4CCOCC4)cc3)o2)c1 | inconclusive: 28.2 µM [inhibitor, single point] |
| O=C(NN=Cc1ccccc1Cl)c1ccc([N+](=O)[O-])cc1 | inactive |
| O=C(c1ccccc1)N1CCc2cc(CNS(=O)(=O)c3ccccc3Cl)ccc21 | inconclusive: 35.5 µM [inhibitor, single point] |
| COC(=O)c1cccc(NC(=O)c2cnccn2)c1 | inconclusive: 35.5 µM [inhibitor, single point] |
| Cc1cc(C)c(C(=O)O)c(CC(C)(C)C(=O)O)c1 | inconclusive: 5.62 µM [inhibitor, single point] |
| N#Cc1c(N)nc2c(c1N)CC(CCl)O2 (configuration not stated) | inconclusive: 35.5 µM [inhibitor, single point] |
| CC(=O)c1cn(C(=O)c2ccc(Cl)cc2)c2ccccc12 | inactive |
| CCN(CC)S(=O)(=O)c1ccc2[nH]c(=O)cc(C(=O)NCC(c3ccco3)N3CCCC3)c2c1 (configuration not stated) | inconclusive: 0.891 µM [activator, single point] |
| CC(C)(C)C(=O)[C@H]1[C@H](c2ccccc2)[C@@]2(N=C(c3ccccc3)OC2=O)C2c3ccccc3C=NN21 (some centres not stated) | inconclusive: 32.6 µM [inhibitor, single point] |
| O=c1[nH]c(C2CCN(S(=O)(=O)/C=C/c3ccccc3)CC2)nc2c1nnn2Cc1ccccc1 | inconclusive: 28.2 µM [inhibitor, single point] |
| COC(=O)c1[nH]c2cc(OC)c(OC)cc2c1NC(=O)c1cccc(OC)c1 | inconclusive: 11.2 µM [inhibitor, partial curve, poor fit] |
| COCc1cc(=O)[nH]c(Nc2nc3ccccc3o2)n1 | inconclusive: 35.5 µM [inhibitor, single point] |
| CCOC(=O)N1CCN(CC(O)c2ccc3c(c2)CCN3)CC1 (configuration not stated) | inconclusive: 7.3 µM [activator, partial curve, poor fit] |
| CCOc1cccc2sc(=NC(=O)c3ccc(S(=O)(=O)N4CCOCC4)cc3)n(C)c12 | inconclusive: 8.2 µM [inhibitor, partial curve, poor fit] |
| CC1CC(C)CC(C)C(O)C(C#N)=CC=CCC(C2CCCC2C(=O)O)OC(=O)CC(O)C(C)C1 (configuration not stated) | active: 1.41 µM |
| CCOC(=O)c1cc(-c2cc3ccccc3o2)n[nH]1 | inconclusive: 14.1 µM [activator, partial curve, poor fit] |
| CCc1ccc(OCC(=O)Nc2c(C(=O)c3ccc(Br)cc3)oc3ccccc23)cc1 | inactive |
| O=C(Cn1c(C(F)(F)F)nc2ccccc21)Nc1ccccc1C(=O)O | inconclusive: 35.5 µM [inhibitor, single point] |
| CCOc1cc(N2CCOCC2)c(OCC)cc1NC(=O)CSc1nccc(C)n1 | inactive |
| N#Cc1c(Cl)cccc1Oc1ccc(S(=O)(=O)Nc2ccccc2)cc1 | inconclusive: 35.5 µM [inhibitor, single point] |
| Cc1cc(N2C(=O)C(=O)/C(=C(/O)c3ccc(Cl)cc3)C2c2cccc(Br)c2)no1 (configuration not stated) | inconclusive: 0.112 µM [activator, full curve, poor fit] |

| Compound | Potency |
| --- | --- |
| Cc1ccc(/C=N/NC(=O)c2cc(-c3ccc(C)o3)[nH]n2)cc1 | inconclusive: 8.2 µM [inhibitor, partial curve, poor fit] |
| CC(=O)CCc1ccc(OCC(O)CNC2CCCc3ccccc32)cc1 (configuration not stated) | inactive |
| O=C1[C@@H]2C(c3cccnc3)=NO[C@@H]2C(=O)N1c1ccc(Br)cc1 | inactive |
| CCOC(=O)c1cc2c(nc1NC(=S)Nc1ccccc1)CC(C)(CC)OC2 (configuration not stated) | inconclusive: 6.31 µM [inhibitor, partial curve, poor fit] |
| CC(C)c1ccc(CC(C)C2C3=C(CCCC3=O)OC3=C2C(=O)CCC3)cc1 (configuration not stated) | inconclusive: 3.98 µM [inhibitor, partial curve, poor fit] |
| Oc1ccccc1Nc1nc(NCc2ccccc2)c2ccccc2n1 | inconclusive: 35.5 µM [inhibitor, single point] |
| Cc1cccc(C)c1NC(=O)N1CCN(c2nc3ccccc3s2)CC1 | inconclusive: 10.3 µM [inhibitor, partial curve] |
| N#Cc1c2ccc(O)cc2n2ccccc12 | inconclusive: 1.26 µM [inhibitor, single point] |
| CN(c1ccc(OCC(=O)N2CCN(c3ccc(F)cc3)CC2)cc1)S(=O)(=O)c1cccs1 | inconclusive: 10 µM [inhibitor, partial curve, poor fit] |
| CN1C2CC(OC(=O)[C@H](CO)c3ccccc3)CC1C1OC12 (some centres not stated) | inactive |
| CCN(CC)S(=O)(=O)c1ccc(NC(=O)c2cc(-c3cccs3)nc3ccccc23)cc1 | inconclusive: 0.058 µM [inhibitor, partial curve, poor fit] |
| CC(=O)Nc1ccc(Nc2nc(C)c([N+](=O)[O-])c(N(C)c3ccccc3)n2)cc1 | inconclusive: 3.98 µM [inhibitor, partial curve] |
| Cc1cc(N2CCCCC2)n2ncc(-c3ccc(Cl)cc3)c2n1 | inconclusive: 0.58 µM [activator, partial curve, poor fit] |
| Cc1cc(NC(=O)CCN2CCN(CCO)CC2)ccc1Br | inconclusive: 11.2 µM [activator, single point] |
| CC(C)(C)c1ccc(OCCNC(=S)Nc2ccccc2)cc1 | inconclusive: 11.2 µM [inhibitor, partial curve, poor fit] |
| CN(C)CCn1c(NC(=O)c2ccc(Cl)cc2)nc2ccccc21 | inactive |
| O=C(Cn1nc(-c2ccccc2)ccc1=O)Nc1ccc(N2CCN(C(=O)c3cccs3)CC2)cc1 | inconclusive: 35.5 µM [inhibitor, single point] |
| COC(C(=O)N/N=C(\C)c1ccc(C(C)(C)C)cc1)c1ccccc1 (configuration not stated) | inconclusive: 25.1 µM [inhibitor, single point] |
| COc1cccc(/C=N/Nc2cc(N3CCOCC3)ncn2)c1O | inconclusive: 10 µM [inhibitor, partial curve, poor fit] |
| O=c1oc(Cl)c(Cl)c2ccccc12 | inconclusive: 0.0092 µM [inhibitor, full curve, poor fit] |
| O=C(Oc1c(CN2CCOCC2)cc(Cl)c2cccnc12)c1ccccc1Cl | inconclusive: 5.62 µM [inhibitor, full curve, poor fit] |
| CCc1ccc(CCC(=O)Nc2ccccc2C(=O)O)o1 | inconclusive: 29.1 µM [inhibitor, single point] |
| CCOc1ccc(CCNc2ncnc3onc(C)c23)cc1OCC | inactive |

| Compound | Potency |
| --- | --- |
| COc1ccc(NC(=S)Nc2cccc(C)n2)cc1 | inconclusive: 12.6 µM [inhibitor, partial curve, poor fit] |
| Cc1nc2ncnn2c(N2CCN(c3cccc(C(F)(F)F)c3)CC2)c1C | inconclusive: 13 µM [inhibitor, partial curve, poor fit] |
| COc1ccc(C(=O)N2CCCCCC2)cc1OC1CCN(C(C)C)CC1 | inactive |
| S=c1[nH]nc(COc2ccccc2)n1/N=C/C(Cl)=C/c1ccccc1 | active: 18.3 µM |
| CCOC(=O)c1cnc2c(OC)cccc2c1N1CCN(c2ccccc2F)CC1 | inconclusive: 11.2 µM [inhibitor, partial curve, poor fit] |
| O=C(CCn1nnc2ccccc21)Nc1nnc(Cc2ccc(F)cc2)s1 | inactive |
| c1ccc(-n2cnnc2SCc2cn3ccccc3n2)cc1 | inconclusive: 20.6 µM [inhibitor, partial curve, poor fit] |
| Cn1ccnc1SCC(=O)Nc1ccc2nc(SCC(=O)NC3CC3)sc2c1 | inactive |
| CCOC(=O)C1=C(O)/C(=C/c2cc(OC)c(O)c(OC)c2)SC1=Nc1ccc(OC)cc1 | inconclusive: 4.61 µM [inhibitor, full curve, poor fit] |
| CN(C)c1nc(NCc2ccccc2)nc(SCC(=O)Nc2ccccc2Cl)n1 | inconclusive: 29.1 µM [inhibitor, single point] |
| COC(=O)C1=C(C)NC(=O)/C1=C\c1cc(C)n(-c2ccccc2)c1C | inconclusive: 35.5 µM [inhibitor, single point] |
| O=[N+]([O-])c1cccc2ccc(/C=C/c3ccc(C(F)(F)F)cc3)nc12 | inactive |
| O=C(NC1CCCC1)c1ccc2c(c1)N(Cc1c(F)cccc1Cl)C(=O)c1ccccc1S2 | inconclusive: 11.2 µM [inhibitor, partial curve] |
| O=C(N/N=C/c1cc([N+](=O)[O-])ccc1O)c1cccc(N2CCCC2=O)c1 | inconclusive: 7.94 µM [inhibitor, partial curve, poor fit] |
| O=c1[nH]c(=S)[nH]c2sc3c(c12)CCCCCC3 | inactive |
| O=C(NCCc1csc(-c2cccc(F)c2)n1)c1ccco1 | inactive |
| CCN1C(=O)/C(=C/c2ccc(N3CCCC3)cc2)NC1=S | inactive |
| CCOc1ccc(N(CC)S(=O)(=O)N2CCCC(C(=O)NCc3ccccc3OCC)C2)cc1 (configuration not stated) | inconclusive: 15.8 µM [inhibitor, single point] |
| Brc1cccc(-c2nnc(SCc3nc4ccccc4[nH]3)o2)c1 | inactive |
| CCOC(=O)N1CCN(C(=O)c2ccc(N3C(=O)CCC3=O)cc2)CC1 | inactive |
| CCN(CC)S(=O)(=O)c1cc(C(=O)Oc2cccc(-c3cnc4ccccc4n3)c2)ccc1Br | inconclusive: 5.62 µM [activator, single point] |
